In publication PMC9279154 (Nature, 2022):
No constants are given. Whether binding was seen depends on the method and setting.

Amino acid sequences for entries named in this document (tags omitted). A change or cut given only in a name is not applied to a line headed by its entry.
UniProt A1ZAW0: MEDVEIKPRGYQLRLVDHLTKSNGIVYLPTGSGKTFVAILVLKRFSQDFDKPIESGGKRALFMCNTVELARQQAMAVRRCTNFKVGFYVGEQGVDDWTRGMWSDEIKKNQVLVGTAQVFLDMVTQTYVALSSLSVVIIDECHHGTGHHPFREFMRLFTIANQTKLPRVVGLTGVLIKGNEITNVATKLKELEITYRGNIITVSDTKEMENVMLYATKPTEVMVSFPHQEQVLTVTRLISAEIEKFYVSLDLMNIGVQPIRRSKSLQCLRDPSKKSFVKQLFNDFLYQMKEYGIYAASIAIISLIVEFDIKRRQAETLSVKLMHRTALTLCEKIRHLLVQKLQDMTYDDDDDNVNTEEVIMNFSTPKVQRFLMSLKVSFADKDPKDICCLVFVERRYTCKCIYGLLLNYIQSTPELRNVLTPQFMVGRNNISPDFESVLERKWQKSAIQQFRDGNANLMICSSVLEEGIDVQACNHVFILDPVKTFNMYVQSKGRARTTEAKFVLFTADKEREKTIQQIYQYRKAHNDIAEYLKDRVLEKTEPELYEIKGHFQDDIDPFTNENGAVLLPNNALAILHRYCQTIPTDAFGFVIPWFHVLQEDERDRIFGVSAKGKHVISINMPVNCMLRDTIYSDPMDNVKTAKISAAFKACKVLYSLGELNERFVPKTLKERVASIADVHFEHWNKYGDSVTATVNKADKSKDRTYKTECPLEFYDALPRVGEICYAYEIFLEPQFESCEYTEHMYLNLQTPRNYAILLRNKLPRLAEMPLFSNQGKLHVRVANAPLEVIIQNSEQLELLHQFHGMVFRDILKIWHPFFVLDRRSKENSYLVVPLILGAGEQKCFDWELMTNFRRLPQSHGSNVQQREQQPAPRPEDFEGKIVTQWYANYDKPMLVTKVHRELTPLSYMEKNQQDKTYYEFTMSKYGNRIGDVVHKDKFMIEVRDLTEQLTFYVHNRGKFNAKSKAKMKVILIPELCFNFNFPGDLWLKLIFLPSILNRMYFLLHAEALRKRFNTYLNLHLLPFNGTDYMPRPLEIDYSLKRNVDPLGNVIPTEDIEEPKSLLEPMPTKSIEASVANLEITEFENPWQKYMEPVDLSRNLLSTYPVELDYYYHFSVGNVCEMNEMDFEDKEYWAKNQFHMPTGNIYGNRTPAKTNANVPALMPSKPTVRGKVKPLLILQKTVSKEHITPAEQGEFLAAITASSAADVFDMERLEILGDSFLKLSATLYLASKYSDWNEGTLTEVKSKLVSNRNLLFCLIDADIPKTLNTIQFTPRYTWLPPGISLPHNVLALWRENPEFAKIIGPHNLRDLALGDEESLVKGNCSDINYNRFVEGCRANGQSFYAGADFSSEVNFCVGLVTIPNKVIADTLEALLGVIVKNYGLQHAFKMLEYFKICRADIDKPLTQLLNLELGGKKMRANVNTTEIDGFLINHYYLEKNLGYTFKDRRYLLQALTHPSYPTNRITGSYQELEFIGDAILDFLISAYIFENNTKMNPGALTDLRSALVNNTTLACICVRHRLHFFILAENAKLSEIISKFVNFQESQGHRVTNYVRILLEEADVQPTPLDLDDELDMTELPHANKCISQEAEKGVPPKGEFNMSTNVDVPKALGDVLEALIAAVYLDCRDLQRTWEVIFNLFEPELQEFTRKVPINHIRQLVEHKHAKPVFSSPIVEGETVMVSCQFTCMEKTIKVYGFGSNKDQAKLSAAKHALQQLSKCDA

Target: Dcr-2 R1330A (Drosophila melanogaster) (UniProt A1ZAW0)
Test: SEC; overlay of size exclusion chromatography of Dcr-2^WT, Dcr-2^R1330A and Dcr-2^R1308A/R1309A/R1330A, each with Loqs-PD and dsRNA; both purified

binding: no binding
Substance: Dcr-2 R1330A (from UniProt A1ZAW0 1-1722) (enzyme)
